# The other results are listed elsewhere or left out. Single values are uncertain, as repeats are few or missing.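 The apoptosis fraction was the count of cleaved-PARP antibody-stained nuclei relative to all DNA-stained nuclei, imaged in 1,536-well plates. Screening doses were set so most cells survived, and baseline and induced cleaved-PARP levels vary greatly across cell lines.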
# Test system: MZ2-MEL
# Test: cleaved PARP positive nuclei fraction relative to DMSO control; melanoma cells; higher = more apoptosis
# Settings: library dose: low library concentration; 72 h
row,SMILES,cleaved PARP positive nuclei fraction
1,"NC(=O)Nc1cc(-c2cccc(F)c2)sc1C(=O)N[C@H]1CCCNC1 + Oc1cc(-c2nc(-c3ccccc3)[nH]c2-c2ccncc2)ccc1Cl [L779450] (first compound 0.02 µM, partner dose 0.2 µM)",73.7%
2,"C#Cc1cccc(Nc2ncnc3cc(OCCOC)c(OCCOC)cc23)c1 [erlotinib] + c1cc(-c2cnn3cc(-c4ccc(OCCN5CCCCC5)cc4)cnc23)ccn1 [Dorsomorphin] (first compound 0.8 µM, partner dose 0.4 µM)",87.4%
3,"O=C(CCCCCCC(=O)Nc1ccccc1)NO [vorinostat] + CC(C)CCN1c2nc(Nc3cc(F)c(O)c(F)c3)ncc2N(C)C(=O)C1C [BID1870] (first compound 0.08 µM, partner dose 0.2 µM)",147%
4,"C#Cc1cccc(Nc2ncnc3cc(OCCOC)c(OCCOC)cc23)c1 [erlotinib] + CCCCCCCCCCCC1=C(O)C(=O)C=C(O)C1=O [Embelin] (first compound 0.8 µM, partner dose 1.2 µM)",68.2%
5,"Cn1nnc2c(C(N)=O)ncn2c1=O [temozolomide] + CC(C)CCN1c2nc(Nc3cc(F)c(O)c(F)c3)ncc2N(C)C(=O)C1C [BID1870] (first compound 2 µM, partner dose 0.2 µM)",66.4%
6,"C#Cc1cccc(Nc2ncnc3cc(OCCOC)c(OCCOC)cc23)c1 [erlotinib] + O=C(O)C(=O)Nc1sc2c(c1C(=O)O)CCNC2 [TCS401] (first compound 0.8 µM, partner dose 1.66667 µM)",215%
7,"Cn1c(Nc2ccc(C(F)(F)F)cc2)nc2cc(Oc3ccnc(-c4ncc(C(F)(F)F)[nH]4)c3)ccc21 + CCc1ccc(CCOc2ccc(CC3SC(=O)NC3=O)cc2)nc1 [pioglitazone] (first compound 0.08 µM, partner dose 2 µM)",73.4%
8,"OCCn1cc(-c2cnc3nnn(Cc4ccc5ncccc5c4)c3n2)cn1 + N#Cc1c(O)c2c(-c3ccc(-c4ccccc4O)cc3)csc2[nH]c1=O [A769662] (first compound 1 µM, partner dose 2 µM)",78.1%
9,"C=CCn1c(=O)c2cnc(Nc3ccc(N4CCN(C)CC4)cc3)nc2n1-c1cccc(C(C)(C)O)n1 + O=C(O)C(=O)Nc1sc2c(c1C(=O)O)CCNC2 [TCS401] (first compound 0.02 µM, partner dose 1.66667 µM)",227%
10,"Cn1nnc2c(C(N)=O)ncn2c1=O [temozolomide] + COC(=O)c1sccc1S(=O)(=O)Nc1ccc(Nc2ccccc2)cc1OC [GSK0660] (first compound 2 µM, partner dose 1 µM)",139%
11,"C[C@@H]1CCN(C(=O)CC#N)C[C@@H]1N(C)c1ncnc2[nH]ccc12 + Oc1nc(-c2ccc(C(F)(F)F)cc2)nc2c1CSCC2 [XAV939] (first compound 1 µM, partner dose 2 µM)",104%
12,"COCC[n+]1c2c(n(Cc3cnccn3)c1C)C(=O)c1ccccc1C2=O + O=C(O)C(=O)Nc1sc2c(c1C(=O)O)CCNC2 [TCS401] (first compound 0.0004 µM, partner dose 1.66667 µM)",163%
13,"O=C(CCCCCCC(=O)Nc1ccccc1)NO [vorinostat] + Oc1nc(-c2ccc(C(F)(F)F)cc2)nc2c1CSCC2 [XAV939] (first compound 0.08 µM, partner dose 2 µM)",143%
14,"COc1cc(Nc2ncc(F)c(Nc3ccc4c(n3)NC(=O)C(C)(C)O4)n2)cc(OC)c1OC [Tamatinib] + COc1ccc(COc2ccc(Cc3cnc(N)nc3N)cc2OC)cc1 [GW2580] (first compound 0.4 µM, partner dose 1 µM)",161%
15,"Cc1nc(Nc2ncc(C(=O)Nc3c(C)cccc3Cl)s2)cc(N2CCN(CCO)CC2)n1 [dasatanib] + CCc1ccc(CCOc2ccc(CC3SC(=O)NC3=O)cc2)nc1 [pioglitazone] (first compound 0.004 µM, partner dose 2 µM)",199%
16,"Cc1cc(N2CCOCC2)cc2[nH]c(-c3c(NC[C@@H](O)c4cccc(Cl)c4)cc[nH]c3=O)nc12 + Cn1cc(/C=C2\C(=O)Nc3cccnc32)c2ccccc21 [GW441756] (first compound 0.2 µM, partner dose 0.4 µM)",87%

# Given tab-delimited: entries from further up.
row	SMILES	cleaved PARP positive nuclei fraction
4	C#Cc1cccc(Nc2ncnc3cc(OCCOC)c(OCCOC)cc23)c1 [erlotinib] + CCCCCCCCCCCC1=C(O)C(=O)C=C(O)C1=O [Embelin] (first compound 0.8 µM, partner dose 1.2 µM)	68.2%
5	Cn1nnc2c(C(N)=O)ncn2c1=O [temozolomide] + CC(C)CCN1c2nc(Nc3cc(F)c(O)c(F)c3)ncc2N(C)C(=O)C1C [BID1870] (first compound 2 µM, partner dose 0.2 µM)	66.4%
6	C#Cc1cccc(Nc2ncnc3cc(OCCOC)c(OCCOC)cc23)c1 [erlotinib] + O=C(O)C(=O)Nc1sc2c(c1C(=O)O)CCNC2 [TCS401] (first compound 0.8 µM, partner dose 1.66667 µM)	215%
7	Cn1c(Nc2ccc(C(F)(F)F)cc2)nc2cc(Oc3ccnc(-c4ncc(C(F)(F)F)[nH]4)c3)ccc21 + CCc1ccc(CCOc2ccc(CC3SC(=O)NC3=O)cc2)nc1 [pioglitazone] (first compound 0.08 µM, partner dose 2 µM)	73.4%
